Assay results reported in publication PMC4865869.
No constants are given. Whether binding was seen depends on the method and setting.

Protein sequences, listed by entry. Tags and fused reporters are not part of them. Lines headed by an entry give the natural chain unless they say otherwise; changes in a name come on top. Residues count along the entry.
UniProt P18613: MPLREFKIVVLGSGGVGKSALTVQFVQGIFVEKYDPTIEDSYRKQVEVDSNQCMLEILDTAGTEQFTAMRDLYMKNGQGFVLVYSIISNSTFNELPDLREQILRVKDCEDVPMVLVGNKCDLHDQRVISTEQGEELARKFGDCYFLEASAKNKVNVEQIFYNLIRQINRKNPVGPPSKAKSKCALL
UniProt Q86C65, residues 1820-2380: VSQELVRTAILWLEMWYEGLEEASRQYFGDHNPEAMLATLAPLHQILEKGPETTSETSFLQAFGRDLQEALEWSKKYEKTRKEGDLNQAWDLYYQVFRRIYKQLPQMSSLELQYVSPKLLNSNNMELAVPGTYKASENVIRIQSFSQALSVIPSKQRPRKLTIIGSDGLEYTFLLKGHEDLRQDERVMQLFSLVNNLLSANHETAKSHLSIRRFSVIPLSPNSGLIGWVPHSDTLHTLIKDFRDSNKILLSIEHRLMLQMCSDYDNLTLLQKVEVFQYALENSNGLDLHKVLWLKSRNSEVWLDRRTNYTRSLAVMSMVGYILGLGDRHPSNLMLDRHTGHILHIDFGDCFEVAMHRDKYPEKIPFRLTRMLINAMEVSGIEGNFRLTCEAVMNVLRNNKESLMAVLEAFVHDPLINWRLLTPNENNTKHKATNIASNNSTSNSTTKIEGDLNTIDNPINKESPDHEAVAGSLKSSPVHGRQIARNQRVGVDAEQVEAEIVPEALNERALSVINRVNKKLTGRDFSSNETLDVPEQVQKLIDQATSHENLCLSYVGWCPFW

Biological target: constitutively active Rap1 mutant (tested with FRB/Kin^TOR) (Dictyostelium) (UniProt P18613)
Experiment: pull-down; GFP-FRB/Kin^TOR with active GST-fused GTPase (GppNHp-loaded or constitutively active mutant), 25 ug of each, 50 mM Tris-Cl, 150 mM NaCl, 5 mM MgCl2, 1 mM beta-mercaptoethanol, pH 7.5; GSH resin; washes with 500 mM NaCl; GFP and GST immunoblotting; both purified

Substance: GFP-fused TOR catalytic domain (FRB/Kin^TOR, aa 1820-2380) (from UniProt Q86C65 1820-2380) (domain or fragment)
- binding: no binding
